What all share (test): split reporter; BiFC with NtGFP and CtGFP fragments of EGFP fused at the N- or C-terminus of each protein; co-agroinfiltration of N. benthamiana leaves (OD600 0.4, mixed in equal proportions); confocal microscopy
The target of assay [1] is T1, N. tabacum peroxidase, BiFC fusion (N. tabacum).
T1 sequence: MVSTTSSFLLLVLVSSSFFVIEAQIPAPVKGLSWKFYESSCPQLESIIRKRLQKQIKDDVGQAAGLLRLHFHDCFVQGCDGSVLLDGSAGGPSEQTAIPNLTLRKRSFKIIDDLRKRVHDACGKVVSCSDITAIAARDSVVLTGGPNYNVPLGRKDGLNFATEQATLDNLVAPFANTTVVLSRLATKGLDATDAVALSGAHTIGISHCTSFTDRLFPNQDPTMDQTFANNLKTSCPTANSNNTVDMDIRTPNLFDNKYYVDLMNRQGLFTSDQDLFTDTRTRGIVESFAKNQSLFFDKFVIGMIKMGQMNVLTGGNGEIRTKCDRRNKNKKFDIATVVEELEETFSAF

For assay [2], the target named is T2, cauliflower mosaic virus (CaMV) movement protein, BiFC fusion (cauliflower mosaic virus) (UniProt P03545).
T2 sequence: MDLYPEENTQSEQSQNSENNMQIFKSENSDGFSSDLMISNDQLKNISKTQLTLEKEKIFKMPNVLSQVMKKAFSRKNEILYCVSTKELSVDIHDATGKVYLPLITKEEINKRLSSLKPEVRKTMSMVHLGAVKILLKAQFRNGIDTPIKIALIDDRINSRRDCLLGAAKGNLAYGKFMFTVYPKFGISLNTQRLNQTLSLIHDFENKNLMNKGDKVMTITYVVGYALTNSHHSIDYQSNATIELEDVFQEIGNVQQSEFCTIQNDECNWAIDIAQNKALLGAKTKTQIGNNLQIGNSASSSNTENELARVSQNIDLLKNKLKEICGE

Assay [3] concerns the target T3, cucumber mosaic virus (CMV) movement protein, BiFC fusion (cucumber mosaic virus) (UniProt Q00271).
T3 sequence: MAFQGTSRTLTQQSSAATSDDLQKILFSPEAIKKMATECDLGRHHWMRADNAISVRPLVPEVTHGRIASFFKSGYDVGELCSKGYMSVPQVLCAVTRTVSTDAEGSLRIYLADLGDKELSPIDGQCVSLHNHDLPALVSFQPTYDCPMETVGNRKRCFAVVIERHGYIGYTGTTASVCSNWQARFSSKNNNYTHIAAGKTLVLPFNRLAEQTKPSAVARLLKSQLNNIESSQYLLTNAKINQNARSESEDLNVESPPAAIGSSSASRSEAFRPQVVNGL

The target of assay [4] is cowpea mosaic virus (CPMV) movement protein, BiFC fusion (cowpea mosaic virus).
Assay [5] has as its target N. tabacum eukaryotic initiation factor 4A, BiFC fusion (N. tabacum).

These are yes or no findings as the source states them, for the method shown. Binding seen in cells or lysates may run through a third protein. Binding calls can cover weak binding; strength is not graded here. Tags and fused reporters may be left off the sequences shown.

As for “N. tabacum eukaryotic initiation factor 4A, BiFC fusion”, the binding result in assay [1], in assay [2] and in assay [3] was “binds” in each case.

B1: N. tabacum peroxidase, BiFC fusion (protein, UniProt A0A1S4BIW4 1-348)
chain: MVSTTSSFLLLVLVSSSFFVIEAQIPAPVKGLSWKFYESSCPQLESIIRKRLQKQIKDDVGQAAGLLRLHFHDCFVQGCDGSVLLDGSAGGPSEQTAIPNLTLRKRSFKIIDDLRKRVHDACGKVVSCSDITAIAARDSVVLTGGPNYNVPLGRKDGLNFATEQATLDNLVAPFANTTVVLSRLATKGLDATDAVALSGAHTIGISHCTSFTDRLFPNQDPTMDQTFANNLKTSCPTANSNNTVDMDIRTPNLFDNKYYVDLMNRQGLFTSDQDLFTDTRTRGIVESFAKNQSLFFDKFVIGMIKMGQMNVLTGGNGEIRTKCDRRNKNKKFDIATVVEELEETFSAF
Turning to B1, in assay [4], the binding result is listed as “no binding”.

B2: N. tabacum 14-3-3A protein, BiFC fusion (protein, UniProt A0ABD8EQ38 1-255)
chain: MASPREENVYLAKLAEQAERYEEMVEFMEKVVGAGDDELTVEERNLLSVAYKNVIGARRASWRIISSIEQKEESRGNEDHVASIKTYRSKIESELTSICNGILKLLDSKLIGTAATGDSKVFYLKMKGDYYRYLAEFKTGAERKEAAENTLSAYKSAQDIANVELAPTHPIRLGLALNFSVFYYEILNSPDRACNLAKQAFDEAIAELDTLGEESYKDSTLIMQLLRDNLTLWTSDMQDDGTDEIKEPSKAEEQQ
With B2, the binding result in assay [5] and in assay [4] was “binds” in each case.

The values above are taken from paper PMC11595209.
